# Experimental data as given in PubChem BioAssay AID720711 (National Center for Advancing Translational Sciences (NCATS), 2013).
# Sequences of proteins named here, by UniProt entry; tags and fusion partners are left off. A change or cut given only in a name is not applied to a line headed by its entry.
# UniProt Q8WZA2: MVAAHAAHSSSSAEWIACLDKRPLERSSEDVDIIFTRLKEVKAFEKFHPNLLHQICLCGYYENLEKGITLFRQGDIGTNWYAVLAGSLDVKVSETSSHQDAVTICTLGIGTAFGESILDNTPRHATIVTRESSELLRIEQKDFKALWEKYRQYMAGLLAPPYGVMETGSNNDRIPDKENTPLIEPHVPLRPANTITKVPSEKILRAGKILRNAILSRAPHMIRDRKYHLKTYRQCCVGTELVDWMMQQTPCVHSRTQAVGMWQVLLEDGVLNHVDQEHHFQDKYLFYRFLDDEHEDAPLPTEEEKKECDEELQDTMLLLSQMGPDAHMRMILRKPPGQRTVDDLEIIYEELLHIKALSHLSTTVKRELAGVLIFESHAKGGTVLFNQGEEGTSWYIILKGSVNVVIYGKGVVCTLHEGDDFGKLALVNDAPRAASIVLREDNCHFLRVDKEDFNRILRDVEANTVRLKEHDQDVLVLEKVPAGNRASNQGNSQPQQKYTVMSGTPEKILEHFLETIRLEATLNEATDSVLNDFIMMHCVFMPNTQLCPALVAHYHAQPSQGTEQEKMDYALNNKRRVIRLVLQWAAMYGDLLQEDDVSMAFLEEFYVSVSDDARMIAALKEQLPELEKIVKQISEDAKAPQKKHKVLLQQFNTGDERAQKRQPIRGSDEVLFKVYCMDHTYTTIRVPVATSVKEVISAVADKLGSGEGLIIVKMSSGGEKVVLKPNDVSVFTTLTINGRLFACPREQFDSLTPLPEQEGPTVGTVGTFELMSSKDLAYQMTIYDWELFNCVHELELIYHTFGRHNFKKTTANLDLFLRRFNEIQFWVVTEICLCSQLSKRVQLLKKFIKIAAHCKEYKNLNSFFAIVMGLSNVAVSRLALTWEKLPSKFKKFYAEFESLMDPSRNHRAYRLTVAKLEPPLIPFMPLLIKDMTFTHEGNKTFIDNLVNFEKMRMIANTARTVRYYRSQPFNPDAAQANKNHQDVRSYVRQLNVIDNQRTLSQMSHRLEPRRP
# About 290 (0.081%) of roughly 360,000 compounds were called active. Inconclusive results, whose numbers are uncertain, are shown with a selection of clear calls. The call rests on the fitted dose curve; in most records, active means well fitted activation curve with a large enough effect; inconclusive means small, poorly fitted or top-dose-only effect; inactive means no such curve, though single readings can be large or run the other way. Potencies of inconclusive entries are doubtful fits and often do not repeat.
# Target: Rap guanine nucleotide exchange factor 4 (Homo sapiens) (UniProt Q8WZA2)
# Experiment: qHTS for Agonist of cAMP-regulated guanine nucleotide exchange factor 4 (EPAC2): primary screen; further: nearly all actives have a fitted effect of over 50% in size
# Conditions: biochemical qHTS; Potency: EPAC2 activation unless noted; activation: at 154 µM (top of the series), 100% = 6.5 mM cAMP response unless noted
# Summary of the method: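 Exchange assay: 100 nM EPAC2 with 250 nM Rap1B-BODIPY-GDP and 50 uM GDP. Fluorescence (ex 480/em 540 nm) read every 5 min for 30 min at room temperature. Data normalized to 6.5 mM cAMP as agonist control.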
# Potency means the concentration at half of the fitted maximal effect.
SMILES,Potency,activation
O=C(Cc1nc2ccccc2[nH]c1=O)c1ccccc1,"inconclusive: 100 µM [activator, partial curve]",
Nc1c(N2CCCC2)cc(Cl)c2nonc12,"inconclusive: 63.1 µM [activator, partial curve]",
CN(C)Cc1ccccc1CCc1ccccc1,"inconclusive: 112 µM [activator, single point]",
Nc1cccc2c(O)cc(S(=O)(=O)O)cc12,"inconclusive: 63.1 µM [activator, partial curve]",
ClC(Cl)(Cl)c1nc2ccccc2n2nncc12,"inconclusive: 63.1 µM [activator, partial curve]",
NS(=O)(=O)c1ccc(NC(=O)COC(=O)Cn2cnc3ccccc3c2=O)cc1,"inconclusive: 126 µM [activator, single point]",
Nn1nnc2ccccc21,"inconclusive: 112 µM [activator, single point]",
CCCN1C(=O)/C(=C/c2ccc3c(c2)OCO3)NC1=S,"inconclusive: 89.1 µM [activator, partial curve]",
CN(CCOc1ccc(Br)cc1)CC(=O)Nc1cccc(S(=O)(=O)NC2=NCCC2)c1,inactive,
CC(=O)OCCCNc1cc(SCc2ccco2)c2nonc2c1[N+](=O)[O-],inactive,
Cc1ccc(NC(=O)/C(C#N)=C(\N)C(Cl)(Cl)Cl)nc1,inactive,
CCOC(=O)c1ccccc1NC(=O)CSc1cccc[n+]1[O-],,"inconclusive: 130% [activator] [at 15.6 µM, 100% = 6.5 mM cAMP response]"
COc1ccc(Cn2cc([N+](=O)[O-])nc2C)cc1[N+](=O)[O-],"inconclusive: 31.6 µM [activator, partial curve]",
CCOc1ccc2nc(NC3=NC(c4ccc(OC)cc4)CC(=O)N3)nc(C)c2c1 (centres undefined),"inconclusive: 63.1 µM [activator, partial curve]",
CN(C)c1ccc(/C=C2\C(=N)N3N=C(CC(=O)N4CCCCC4)SC3=NC2=O)cc1,active: 100 µM,
CCc1nc2ccc(C(=O)NCC3CCCCC3)cn2c1N(C)Cc1nccs1,inactive,
Cn1ccc(C(=O)N2CCCc3ccccc32)n1,"inconclusive: 112 µM [activator, single point]",
CCOC(=O)c1ccc(N2C(=O)CC(N3CCN(C/C=C/c4ccccc4)CC3)C2=O)cc1 (centres undefined),,"inconclusive: 33.6% [activator] [at 15.6 µM, 100% = 6.5 mM cAMP response]"
O=C(N/N=C/c1cc(Cl)cc(Cl)c1O)c1ccncc1,"inconclusive: 100 µM [activator, partial curve]",
Cc1onc(-c2c(F)cccc2Cl)c1C(=O)OCC(=O)c1c[nH]c2ccccc12,"inconclusive: 70.8 µM [activator, partial curve]",
CCOC(=O)CN(C(=O)CSc1nnc(CNc2ccc(C)cc2C)o1)c1ccccc1,inactive,
O=C(C=Cc1ccccc1)c1cccs1,inactive,
COc1ccc(-c2cc(C(F)F)n3ncc(C(=O)N4CCc5ccccc54)c3n2)cc1,active: 100 µM,

SMILES,Potency,activation
CC(=NNC(=O)c1ccncc1)c1ccc2ccccc2c1O,"inconclusive: 126 µM [activator, single point]",
O=C(Nc1ccc(Cl)cc1Cl)C1=Cc2ccccc2OC1,inactive,
COc1ccc2nc(N3CCCC3)c(C#N)cc2c1,"inconclusive: 89.1 µM [activator, partial curve]",
CCOC(=O)C(=Cc1ccc(N(C)C)cc1)C(=O)c1ccccc1,"inconclusive: 89.1 µM [activator, partial curve]",
CCNc1ccc2noc3c2c1C(=O)c1ccccc1-3,active: 89.1 µM,
COC(=O)C1=NN(C(=O)c2cccc(Br)c2)C(O)(c2ccc(Cl)cc2)C1 (centres undefined),"inconclusive: 100 µM [activator, partial curve]",
CCC(C)Sc1nc2c(c(=O)[nH]c(=O)n2C)n1CC(O)COc1cccc2ccccc12 (centres undefined),"inconclusive: 126 µM [activator, single point]",
CCN1/C(=C/c2ccc3cc(C)ccc3[n+]2C)Sc2ccc3sccc3c21,"inconclusive: 112 µM [activator, partial curve]",
O=C(NCc1ccc(OC(F)(F)F)cc1)c1cccc2c1C(=O)c1ccc(N3CCCC3)cc1S2(=O)=O,active: 100 µM,
Cc1nc(N2CCC(C)CC2)c2nnn(Cc3ccccc3)c2n1,"inconclusive: 10 µM [activator, partial curve]",
O=C(NCc1cccc(F)c1)c1cccc2c1C(=O)c1ccc(N3CCOCC3)cc1S2(=O)=O,active: 89.1 µM,
O=C(Nc1ccc2oc(-c3ccncc3)nc2c1)c1ccc2c(c1)OCO2,"inconclusive: 35.5 µM [activator, partial curve]",
CCCC(=O)N=C1SC2CS(=O)(=O)CC2N1c1ccc(CC)cc1 (centres undefined),,"inconclusive: 52.6% [activator] [at 15.6 µM, 100% = 6.5 mM cAMP response]"
CN(c1ccccc1C(=O)Nc1ccc2c(c1)OCO2)S(C)(=O)=O,"inconclusive: 35.5 µM [activator, single point]",
O=C(c1cc(-c2ccccc2)on1)N1CCCCCC1,inactive,
CSc1nc2ccc(NS(=O)(=O)c3ccc4c(c3)OCCO4)cc2s1,"inconclusive: 112 µM [activator, partial curve]",
CC12CN(NC(=O)c3ccc(Cl)cc3)C3(C#N)CC1CCC23C (centres undefined),"inconclusive: 100 µM [activator, single point]",
N#C/C(=C\c1cccc([N+](=O)[O-])c1)C(=O)NCc1cccnc1,inactive,
NS(=O)(=O)c1cccc(NC(=O)c2cccc(Oc3ccccc3)c2)c1,"inconclusive: 56.2 µM [activator, partial curve, poor fit]",
O=C(COc1ccc(/C=N/NC(=O)c2ccc(O)cc2)cc1)Nc1cccc([N+](=O)[O-])c1,"inconclusive: 31.6 µM [activator, partial curve]",
Cc1ccc(-n2c(-c3ccco3)nc3nc4ccccc4nc32)cc1,,inconclusive: 30.7% [activator]
COc1ccc(NC(=O)CSc2nc3sc4c(c3c(=O)n2-c2ccc(OC)cc2)CCN(C)C4)cc1,"inconclusive: 100 µM [activator, partial curve]",
COc1ccc(N=Cc2c(O)c3ccccc3n2C(C)=O)cc1,"inconclusive: 112 µM [activator, partial curve]",

# Reprinted at random: 3 compounds from above, in no set order.
SMILES,Potency,activation
CCC(C)Sc1nc2c(c(=O)[nH]c(=O)n2C)n1CC(O)COc1cccc2ccccc12 (centres undefined),"inconclusive: 126 µM [activator, single point]",
CCOC(=O)C(=Cc1ccc(N(C)C)cc1)C(=O)c1ccccc1,"inconclusive: 89.1 µM [activator, partial curve]",
O=C(Nc1ccc(Cl)cc1Cl)C1=Cc2ccccc2OC1,inactive,

# More records:

SMILES,Potency,activation
O=C1NN(c2ccc(Br)cc2)C(=O)/C1=C\c1ccc(O)cc1O,inactive,
Cc1nn(C(=O)c2ccco2)c(C)c1Sc1ccccc1,"inconclusive: 112 µM [activator, single point]",
O=C(c1cccs1)N1C[C@@H](O)[C@H](n2cc(-c3ccc(F)cc3)nn2)C[C@@H]1c1ccccc1,"inconclusive: 100 µM [activator, partial curve]",
Cc1cccc(Nc2nc(Cl)ncc2F)c1C,"inconclusive: 50.1 µM [activator, single point]",
CC(C)COc1ccc(C(=O)OCC(=O)NCCC2=CCCCC2)cc1,"inconclusive: 50.1 µM [activator, single point]",
CCSc1nnc(CNC(=O)C23CC4CC(CC(C4)C2)C3)n1C1CCCCC1,"inconclusive: 100 µM [activator, partial curve]",
CCCCCCOC(=O)C(C#N)c1nc2ccccc2nc1N1CCCCC1 (centres undefined),inactive,
Cc1ccc(CC(=O)NNC(=O)c2ccncc2)cc1C,inactive,
COC(=O)c1ccc(NC(=S)NCCc2ccccc2C)cc1,"inconclusive: 70.8 µM [activator, partial curve]",
COc1ccc(Nc2nc(-c3ccccc3F)nc3ccccc23)cc1OC,"inconclusive: 63.1 µM [activator, partial curve]",
C=CCn1c(=N)c(C#N)cc2c(=O)n3ccccc3nc21,"inconclusive: 100 µM [activator, partial curve]",
O=C(CCOc1ccccc1)Nc1ccc(S(=O)(=O)N2CCCC2)cc1,"inconclusive: 100 µM [activator, partial curve]",
Cc1ccc(N=Cc2c(O)n(-c3nccs3)c(=O)c3ccccc23)c(C)c1,active: 70.8 µM,
C=CCN1C(=O)/C(=C/C=C2/N(CC)c3ccc(S(=O)(=O)N(C)C)cc3N2CC)SC1=S,active: 100 µM,
CCN(CC)c1ccc(/C=C(/C#N)c2nc3ccc(C)cc3[nH]2)c(OC(C)C)c1,"inconclusive: 112 µM [activator, single point]",
O=C(Nc1nccs1)c1ccc(-c2ccccc2Cl)o1,"inconclusive: 100 µM [activator, partial curve]",
CCN1C=C(Cc2ccccc2C)C2=C(C1)C(c1ccccc1C)C(C#N)=C(N)O2 (centres undefined),inactive,
COCCOC(=O)C1=C(C)N=c2s/c(=C\c3cccs3)c(=O)n2C1c1cccs1 (centres undefined),,inconclusive: 31.6% [activator]
Cc1ccc(O)c(C(=O)c2cc(C#N)c(=O)n(-c3nccs3)c2)c1,active: 112 µM,
CSc1ccc(C2C(C#N)=C(N)Oc3c2ccc(=O)c2c(C)oc(C)c32)cc1 (centres undefined),inactive,
CCN(CC)c1ccc(C=C2SC(=S)NC2=O)cc1,"inconclusive: 89.1 µM [activator, partial curve]",
CC[C@@]1(C(=O)OC)N[C@H](CN(C)S(=O)(=O)c2ccc(C(C)(C)C)cc2)[C@@H]2C(=O)N(Cc3ccccc3)C(=O)[C@@H]21,"inconclusive: 35.5 µM [activator, single point]",
CC1CCN(C(=O)c2cc3c(ccc4ccccc43)o2)CC1,inactive,
